The results in this text go back to patent publication US4424229A, “Fluorine containing 2,4,5-triphenylimidazoles” (A/S Dumex (Dumex Ltd.), priority 1982, dated 1984).

Broadly, the ED50 is the midpoint of the dose-response relation.

Assay [1] concerns acetic acid induced writhing movements. Briefly: Writhing test in mice (acetic acid). It is filed as in vivo, mice (NMRI/BOM). Particulars: Mus musculus, po, 20 min, gavage 1/2 hour before i.p. acetic acid, writhings in 20 minutes, read-out: Analgesic ED50, writhing test. How it is done: Tests for analgesic activity
1. Writhing test in mice. (SPF females of the strain NMRI/BOM, weighing 20-25 g). The test substance was administered by gavage 1/2 hour prior to an intraperitoneal injection of acetic acid. The number of writhing movements in 20 minutes was counted.

The test system of assay [2] is arachidonic acid induced aggregation of human platelet rich plasma. The assay can be described thus: Platelet aggregation inhibition test (arachidonic acid induced, human platelet rich plasma). Format: cell-based. Particulars: AA = arachidonic acid. How it is done: Platelet aggregation inhibition test The ability of the test substance to inhibit arachidonic acid induced aggregation of human platelet rich plasma was tested in a HU aggregometer (from H. Upchurch & Co. Ltd.).

In the case of `COc1ccc2cc([C@H](C)C(=O)O)ccc2c1` [Compound 14, Naproxen, reference compound], the ED50 in assay [1] was 33 mg/kg. The “Inhibition of platelet aggregation IC100” value in assay [2] is 4.76 μg/190 μg AA.
